Data as given in PubChem BioAssay AID1259327 (Drosophila RNAi Screening Center, 2017).
The deposit covers about 3,100 reagents; this is an unselected part. 378 of all reagents (12%) were called active. 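Hits include both directions; z-score sign shows ATP rise or fall; raw luminescence values are not plate-normalised.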 Entries without a mark were called inactive. The numbers tell different reagents against one gene apart. Not stated in the record: the amount of reagent.

- Screen: 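Data from controls in screens of zinc and manganese toxicity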
- Cells: Drosophila S2R+ cells
- Knock-down reagent: long dsRNA against Drosophila genes
- Time to read-out: 5 days (water added on day 4, read one day later)
- Conditions: water added as vehicle, no metal, one day before read-out
- Detection: 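Luciferase ATP signal per well, normalised to plate mean, duplicate average converted to z-score across plates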
- Reading the numbers: ATP z-score: higher = more total ATP than typical wells; ATP luminescence: higher = more total ATP
- Call rule: 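a hit is any knock-down whose absolute ATP z-score is greater than 1.5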
- Calls: active = hit: ATP up or down; inactive = no clear ATP change

gene knocked down	dsRNA no.	ATP z-score, duplicate mean	ATP luminescence, replicate 1 (RLU)	ATP luminescence, replicate 2 (RLU)
CG33969	1	-0.491	6.84e5	6.94e5
hec	1	1.34	6.30e5	6.90e5
hec	2	1.23	6.28e5	4.66e5
pHCl-2	1	0.978	8.64e5	6.42e5
AQP	1	1.69 (active)	8.97e5	6.48e5
AQP	2	0.701	4.77e5	5.20e5
ppk5	1	-0.803	8.06e5	7.23e5
ppk5	2	0.81	5.72e5	4.66e5
emei	1	0.0946	7.34e5	7.73e5
emei	2	5.24 (active)	9.84e5	1.06e6
kcc	1	-0.922	5.01e5	7.68e5
kcc	2	-0.459	7.18e5	6.37e5
Octbeta3R	1	1.26	7.09e5	6.63e5
Octbeta3R	2	0.11	8.89e5	7.87e5
Tango9	1	-0.27	6.96e5	6.60e5
CG32246	1	-0.152	6.91e5	7.63e5
CG32246	2	0.748	9.18e5	9.08e5
senju	1	-0.848	6.47e5	6.26e5
senju	2	0.383	4.96e5	5.17e5
ppk26	1	-1.06	7.59e5	7.54e5
ppk26	2	0.387	8.95e5	9.02e5
CG17321	1	0.0967	7.28e5	7.45e5
CG17321	2	0.103	9.07e5	7.70e5
CG2938	1	-0.524	9.00e5	8.92e5
Tsp42Ej	1	1.94 (active)	8.90e5	1.02e6
Tsp42Ej	2	-1.97 (active)	5.94e5	5.78e5
Stim	1	-0.0412	6.97e5	7.05e5
Stim	2	-0.955	3.90e5	4.11e5

4 entries from above, reformatted:
AQP #1
- ATP z-score, duplicate mean: 1.69 (active)
- ATP luminescence, replicate 1 (RLU): 8.97e5
- ATP luminescence, replicate 2 (RLU): 6.48e5

AQP #2
- ATP z-score, duplicate mean: 0.701
- ATP luminescence, replicate 1 (RLU): 4.77e5
- ATP luminescence, replicate 2 (RLU): 5.20e5

ppk5 #1
- ATP z-score, duplicate mean: -0.803
- ATP luminescence, replicate 1 (RLU): 8.06e5
- ATP luminescence, replicate 2 (RLU): 7.23e5

ppk5 #2
- ATP z-score, duplicate mean: 0.81
- ATP luminescence, replicate 1 (RLU): 5.72e5
- ATP luminescence, replicate 2 (RLU): 4.66e5
